These are yes or no findings as the source states them, for the method shown. In cells and extracts the contact can be indirect. Some results given as binding are weak or reduced against the parent protein; the word gives no strength. Sequences can lack the tags named with a protein.
T1: Flag-HA-TRAF4 WT (UniProt Q9BUZ4)
T1 sequence (chain, K63-linkage poly-ubiquitination after irradiation (sites not stated)): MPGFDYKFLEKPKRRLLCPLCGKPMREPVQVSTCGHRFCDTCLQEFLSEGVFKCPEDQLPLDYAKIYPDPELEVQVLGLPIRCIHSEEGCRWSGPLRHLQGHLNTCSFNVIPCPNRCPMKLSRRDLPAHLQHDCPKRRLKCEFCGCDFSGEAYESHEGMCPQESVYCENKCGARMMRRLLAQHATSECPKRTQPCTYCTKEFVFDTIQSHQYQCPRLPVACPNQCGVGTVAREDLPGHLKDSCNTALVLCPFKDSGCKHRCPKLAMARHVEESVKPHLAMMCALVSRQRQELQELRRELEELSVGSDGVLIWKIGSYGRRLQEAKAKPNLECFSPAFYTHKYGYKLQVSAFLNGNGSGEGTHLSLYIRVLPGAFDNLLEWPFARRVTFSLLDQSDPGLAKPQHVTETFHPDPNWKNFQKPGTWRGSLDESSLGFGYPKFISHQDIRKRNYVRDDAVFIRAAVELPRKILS

Sequences of proteins named here, by UniProt entry; tags and fusion partners are left off.
UniProt Q9HAU4: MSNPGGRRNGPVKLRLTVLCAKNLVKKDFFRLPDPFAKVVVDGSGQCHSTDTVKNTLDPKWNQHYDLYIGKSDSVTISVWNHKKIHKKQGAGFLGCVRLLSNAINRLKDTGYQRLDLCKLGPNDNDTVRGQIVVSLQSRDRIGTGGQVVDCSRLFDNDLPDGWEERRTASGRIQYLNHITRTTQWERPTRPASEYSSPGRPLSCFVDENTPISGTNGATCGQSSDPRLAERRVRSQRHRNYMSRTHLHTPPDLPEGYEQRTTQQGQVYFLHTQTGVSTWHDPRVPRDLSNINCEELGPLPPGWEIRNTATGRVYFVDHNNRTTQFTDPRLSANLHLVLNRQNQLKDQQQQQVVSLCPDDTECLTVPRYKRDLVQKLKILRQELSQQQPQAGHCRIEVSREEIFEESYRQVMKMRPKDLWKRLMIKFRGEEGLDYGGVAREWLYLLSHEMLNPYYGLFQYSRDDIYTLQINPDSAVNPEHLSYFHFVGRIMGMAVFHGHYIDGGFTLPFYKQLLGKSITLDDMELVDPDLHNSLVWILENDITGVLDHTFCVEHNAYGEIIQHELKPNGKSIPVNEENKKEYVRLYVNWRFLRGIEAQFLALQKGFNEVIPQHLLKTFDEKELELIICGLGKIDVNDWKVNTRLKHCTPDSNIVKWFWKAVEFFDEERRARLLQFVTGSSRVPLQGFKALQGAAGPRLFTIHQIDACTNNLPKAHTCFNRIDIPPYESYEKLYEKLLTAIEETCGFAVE


What was measured:
Flag-HA-TRAF4 WT [1] = target: T1, Flag-HA-TRAF4 WT; test: co-IP; normal lung fibroblasts, with or without irradiation; IP assay of Supplementary Fig. 1 (antibody and constructs not told in the text shown)
Flag-HA-TRAF4 WT [2] = target: T1, Flag-HA-TRAF4 WT; test: co-IP; normal lung fibroblasts transfected with mock, Flag-HA-TRAF4 WT or dR, with or without irradiation (2 Gy); lysates precipitated with anti-Flag antibody and protein G-agarose, Western blotting

| binding (Flag-HA-TRAF4 WT [1]) | binding (Flag-HA-TRAF4 WT [2]) | Molecule |
| --- | --- | --- |
| binds | – | SMURF2 (from UniProt Q9HAU4 1-748) (enzyme) |
| binds | – | TβRI (receptor, UniProt P36897 34-503) LQCFCHLCTKDNFTCVTDGLCFVSVTETTDKVIHNSMCIAEIDLIPRDRPFVCAPSSKTGSVTTTYCCNQDHCNKIELPTTVKSSPGLGPVELAAVIAGPVCFVCISLMLMVYICHNRTVIHHRVPNEEDPSLDRPFISEGTTLKDLIYDMTTSGSGSGLPLLVQRTIARTIVLQESIGKGRFGEVWRGKWRGEEVAVKIFSSREERSWFREAEIYQTVMLRHENILGFIAADNKDNGTWTQLWLVSDYHEHGSLFDYLNRYTVTVEGMIKLALSTASGLAHLHMEIVGTQGKPAIAHRDLKSKNILVKKNGTCCIADLGLAVRHDSATDTIDIAPNHRVGTKRYMAPEVLDDSINMKHFESFKRADIYAMGLVFWEIARRCSIGGIHEDYQLPYYDLVPSDPSVEEMRKVVCEQKLRPNIPNRWQSCEALRVMAKIMRECWYANGAARLTALRIKKTLSQLSQQEGIKM |
| – | binds | endogenous TRAF4 (protein, UniProt Q9BUZ4 1-470) MPGFDYKFLEKPKRRLLCPLCGKPMREPVQVSTCGHRFCDTCLQEFLSEGVFKCPEDQLPLDYAKIYPDPELEVQVLGLPIRCIHSEEGCRWSGPLRHLQGHLNTCSFNVIPCPNRCPMKLSRRDLPAHLQHDCPKRRLKCEFCGCDFSGEAYESHEGMCPQESVYCENKCGARMMRRLLAQHATSECPKRTQPCTYCTKEFVFDTIQSHQYQCPRLPVACPNQCGVGTVAREDLPGHLKDSCNTALVLCPFKDSGCKHRCPKLAMARHVEESVKPHLAMMCALVSRQRQELQELRRELEELSVGSDGVLIWKIGSYGRRLQEAKAKPNLECFSPAFYTHKYGYKLQVSAFLNGNGSGEGTHLSLYIRVLPGAFDNLLEWPFARRVTFSLLDQSDPGLAKPQHVTETFHPDPNWKNFQKPGTWRGSLDESSLGFGYPKFISHQDIRKRNYVRDDAVFIRAAVELPRKILS |

Source: publication PMC5566719
